Test: Fluorescence response to glutathione, quantitativity (FIG. 5)
Type: biochemical
Details: up to 1000 pmol
Description: Quantitativity and the like of each of the compounds 6a and 8a with respect to a mercapto compound were evaluated, by using glutathione (GSH) and cysteine that are kinds of thiol. More specifically, an EtOH solution of the compound 6a (10 mM) was prepared, and it further was diluted by 500-fold with a HEPES buffer solution having a pH of 7.4, thereby preparing a probe solution containing the compound 6a. Next, 200 μL of this probe solution and 10 μL of each of solutions of glutathione or cysteine (dissolved in a HEPES buffer solution having a pH of 7.4) with various concentrations were added into each well of a 96-wellmicroplate, and were allowed to stand still at 37° C. for 10 minutes so as to undergo a reaction. Moreover, a probe solution containing 8a was prepared in the same manner as the preparation of the solution of the compound 6a except using 8a instead of 6a, and this probe solution also was allowed to react with a thiol solution in the same manner as the reaction of the probe solution containing 6a. Then, a fluorescence response of each well was measured after the reaction. The measurement of 6a was conducted at λex=383 nm and λem=500 nm, and the measurement of 8a was conducted at λex=483 nm and λem=515 nm. Herein, λex denotes an excitation wavelength, and λem denotes an emission wavelength. […]

Row | Compound | correlation coefficient (r), GSH
1 | O=C(O)c1ccccc1-c1c2ccc(=O)cc-2oc2cc(OS(=O)(=O)c3ccc([N+](=O)[O-])cc3[N+](=O)[O-])ccc12 [Compound 8a] | 1.0000
2 | O=c1cc(C(F)(F)F)c2ccc(OS(=O)(=O)c3ccc([N+](=O)[O-])cc3[N+](=O)[O-])cc2o1 [Compound 6a] | 0.9998
